± gives the standard deviation of the averaged measurements. Most entries show no effect beyond the scatter of the controls.
Key:
Assay in all cases: level (log10 ratio to DMSO vehicle control); higher = higher biomarker level / cell amount than vehicle control
[1] = compound: C=C(C)C(=O)OCCC(F)(F)C(F)(F)C(F)(F)C(F)(F)C(F)(F)C(F)(F)F [6:2 Fluorotelomer methacrylate] (in DMSO); details: 2200 nM
Procedure: (§1)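 BioMAP Diversity Plus panel of 12 human primary cell co-culture systems (3C, 4H, LPS, SAg, BT, BF4T, BE3C, CASM3C, HDF3CGF, KF3CT, MyoF, Mphg). Compounds were added 1 h before stimulation and left for 24 h (MyoF 48 h; BT 72 h for soluble read-outs or 6 d for IgG). Biomarkers were read by ELISA, cytotoxicity by SRB, PBMC viability and proliferation by Alamar Blue. Each well value was divided by the mean of 8 DMSO control wells on the same plate and log10 transformed; duplicate blinded samples were tested at 4 concentrations.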

[2] = compound: CNS(=O)(=O)C(F)(F)C(F)(F)C(F)(F)C(F)(F)C(F)(F)C(F)(F)C(F)(F)C(F)(F)F [N-Methylperfluorooctanesulfonamide] (in DMSO); details: 2200 nM
Procedure: as §1

[3] = compound: FC(F)(F)C(F)(F)C(F)(F)C(F)(F)CCI [1H,1H,2H,2H-Perfluorohexyl iodide] (in DMSO); details: 2200 nM
Procedure: as §1

[4] = compound: FC(F)(F)C(F)(F)CNCC(F)(F)C(F)(F)F [Bis(1H,1H-perfluoropropyl)amine] (in DMSO); details: 2200 nM
Procedure: as §1

[5] = compound: FC(F)(F)COC(OCC(F)(F)F)OCC(F)(F)F [tris(Trifluoroethoxy)methane] (in DMSO); details: 2200 nM
Procedure: as §1

Hexafluoroglutaric acid = compound: O=C(O)C(F)(F)C(F)(F)C(F)(F)C(=O)O [Hexafluoroglutaric acid] (in DMSO)
Procedure: as §1

Perfluorohexanoic acid = compound: O=C(O)C(F)(F)C(F)(F)C(F)(F)C(F)(F)C(F)(F)F [Perfluorohexanoic acid] (in DMSO)
Procedure: as §1

[6] = compound: O=C(O)C(F)(F)C(F)(F)C(F)(F)OC(F)(C(F)(F)F)C(F)(F)F [Perfluoro-4-isopropoxybutanoic acid] (in DMSO); details: 2200 nM
Procedure: as §1

[7] = compound: O=C(O)C(F)(OC(F)(F)C(F)(F)C(F)(F)F)C(F)(F)F [Ammonium perfluoro-2-methyl-3-oxahexanoate] (in Water)
Procedure: as §1

[8] = compound: O=C(O)C(F)(OC(F)(F)C(F)(OC(F)(F)C(F)(OC(F)(F)C(F)(F)C(F)(F)F)C(F)(F)F)C(F)(F)F)C(F)(F)F [Perfluoro-(2,5,8-trimethyl-3,6,9-trioxadodecanoic)acid] (in DMSO); details: 370 nM
Procedure: as §1

[9] = compound: O=C(O)CCC(F)(F)C(F)(F)C(F)(F)F [3:3 Fluorotelomer carboxylic acid] (in DMSO); details: 2200 nM
Procedure: as §1

[10] = compound: O=S(=O)(O)C(F)(F)C(F)(F)C(F)(F)C(F)(F)F [Perfluorobutanesulfonic acid] (in DMSO)
Procedure: as §1

[11] = compound: OCC(F)(F)C(F)(F)C(F)(F)C(F)(F)C(F)(F)C(F)(F)CO [1H,1H,8H,8H-Perfluorooctane-1,8-diol] (in DMSO); details: 2200 nM
Procedure: as §1

[12] = compound: OCC(F)(F)C(F)(F)C(F)(F)C(F)(F)C(F)(F)C(F)(F)F [6:1 Fluorotelomer alcohol] (in DMSO); details: 2200 nM
Procedure: as §1

[13] = compound: OCC(F)(F)C(F)(F)C(F)(F)C(F)F [1H,1H,5H-Perfluoropentanol] (in DMSO); details: 2200 nM
Procedure: as §1

[14] = compound: OCC(F)(F)OC(F)(F)C(F)(F)OC(F)(F)CO [1H,1H,8H,8H-Perfluoro-3,6-dioxaoctane-1,8-diol] (in DMSO); details: 2200 nM
Procedure: as §1

[15] = compound: OCCCC(F)(F)C(F)(F)C(F)(F)C(F)(F)C(F)(F)C(F)(F)C(F)(F)C(F)(F)F [3-(Perfluorooctyl)propanol] (in DMSO); details: 2200 nM
Procedure: as §1

| Test System | level (log10) [1] | level (log10) [2] | level (log10) [3] | level (log10) [4] | level (log10) [5] | level (log10) (Hexafluoroglutaric acid; 2200 nM) | level (log10) (Hexafluoroglutaric acid; 6700 nM) | level (log10) (Hexafluoroglutaric acid; 20000 nM) | level (log10) (Hexafluoroglutaric acid; 60000 nM) | level (log10) (Perfluorohexanoic acid; 2200 nM) | level (log10) (Perfluorohexanoic acid; 6700 nM) | level (log10) (Perfluorohexanoic acid; 20000 nM) | level (log10) (Perfluorohexanoic acid; 60000 nM) | level (log10) [6] | level (log10) ([7]; 2200 nM) | level (log10) ([7]; 6700 nM) | level (log10) ([7]; 20000 nM) | level (log10) ([7]; 60000 nM) | level (log10) [8] | level (log10) [9] | level (log10) ([10]; 2200 nM) | level (log10) ([10]; 6700 nM) | level (log10) ([10]; 20000 nM) | level (log10) ([10]; 60000 nM) | level (log10) [11] | level (log10) [12] | level (log10) [13] | level (log10) [14] | level (log10) [15] |
| --- | --- | --- | --- | --- | --- | --- | --- | --- | --- | --- | --- | --- | --- | --- | --- | --- | --- | --- | --- | --- | --- | --- | --- | --- | --- | --- | --- | --- | --- |
| CASM3C:LDLR | -0.041 ± 0.058 | 0.034 ± 0.064 | 0.0295 ± 0.0092 | -0.006 ± 0.017 | 0.0095 ± 0.0035 | -0.0035 ± 0.00071 | -0.009 ± 0.0099 | -0.0175 ± 0.026 | -0.015 ± 0.014 | 0.0105 ± 0.022 | 0.001 ± 0.0028 | -0.0065 ± 0.029 | -0.0025 ± 0.039 | 0.039 ± 0.0071 | -0.0275 ± 0.013 | -0.061 ± 0.057 | -0.032 ± 0.04 | -0.0545 ± 0.021 | 0.016 ± 0.028 | 0.008 ± 0.025 | -0.026 ± 0.014 | -0.0305 ± 0.0035 | -0.0255 ± 0.025 | -0.0345 ± 0.053 | 0.0325 ± 0.036 | 0.0015 ± 0.035 | -0.115 ± 0.049 | 0.029 ± 0.024 | 0.037 ± 0.028 |
| CASM3C:M-CSF | -0.0075 ± 0.044 | 0.022 ± 0.051 | 0.0325 ± 0.036 | 0.009 ± 0.023 | 0.0075 ± 0.06 | 0.01 ± 0.059 | -0.0135 ± 0.022 | -0.0185 ± 0.033 | 0.018 ± 0.018 | 0.022 ± 0.037 | -0.0185 ± 0.019 | -0.0125 ± 0.013 | 0.0105 ± 0.0092 | 0.055 ± 0.0028 | -0.0635 ± 0.076 | -0.049 ± 0.016 | -0.0405 ± 0.0092 | -0.0405 ± 0.022 | -0.0155 ± 0.013 | 0.033 ± 0.09 | -0.0065 ± 0.022 | -0.007 ± 0.031 | -0.002 | 0.0025 ± 0.011 | 0.022 ± 0.038 | 0.002 ± 0.04 | 0.031 ± 0.011 | 0.0145 ± 0.067 | 0.0115 ± 0.054 |
| CASM3C:PAI-I | -0.0015 ± 0.0021 | 0.0105 ± 0.018 | 0.0195 ± 0.0035 | -0.0055 ± 0.011 | 0.0055 ± 0.016 | 0 ± 0.016 | -0.0015 ± 0.015 | -0.0005 ± 0.0064 | 0.0075 ± 0.0064 | 0.001 ± 0.0099 | 0.0005 ± 0.005 | -0.003 ± 0.0042 | 0.0095 ± 0.005 | 0.0165 ± 0.011 | 0.0015 ± 0.0035 | -0.007 ± 0.0085 | -0.0005 ± 0.0092 | -0.0025 ± 0.013 | 0.001 ± 0.0085 | 0 ± 0.0099 | 0.003 ± 0.0042 | -0.0095 ± 0.012 | 0.0035 ± 0.0064 | 0.007 ± 0.0099 | -0.003 ± 0.017 | 0.0025 ± 0.0021 | 0.014 ± 0.013 | 0.01 ± 0.0014 | -0.0115 ± 0.005 |
| CASM3C:Proliferation | -0.0245 ± 0.032 | 0.0115 ± 0.0078 | 0.0075 ± 0.05 | -0.0205 ± 0.019 | -0.034 ± 0.082 | -0.006 | -0.015 ± 0.083 | -0.029 ± 0.0071 | 0.004 ± 0.0071 | -0.0185 ± 0.043 | -0.001 ± 0.018 | -0.065 | -0.0055 ± 0.015 | 0.0015 ± 0.0021 | 0.0255 ± 0.0035 | -0.07 ± 0.085 | -0.095 ± 0.02 | -0.104 ± 0.065 | -0.024 ± 0.067 | -0.0015 ± 0.00071 | -0.059 ± 0.028 | -0.0455 ± 0.044 | -0.0405 ± 0.013 | -0.019 ± 0.017 | -0.0325 ± 0.0078 | 0.006 ± 0.0042 | -0.004 ± 0.075 | -0.022 ± 0.0028 | -0.019 ± 0.025 |
| CASM3C:SRB | 0.0025 ± 0.0064 | 0.0095 ± 0.00071 | 0.0135 ± 0.016 | 0.0135 ± 0.019 | -0.01 ± 0.0057 | 0.002 ± 0.0099 | -0.001 ± 0.0028 | -0.0035 ± 0.0021 | 0.0065 ± 0.005 | -0.0055 ± 0.013 | -0.001 | -0.013 ± 0.0028 | -0.0005 ± 0.0021 | 0.008 ± 0.018 | -0.0255 ± 0.005 | -0.007 ± 0.0057 | -0.008 ± 0.0014 | -0.0105 ± 0.0064 | 0 ± 0.0042 | -0.006 ± 0.014 | 0.0035 ± 0.0021 | -0.0045 ± 0.0035 | -0.0045 ± 0.0035 | -0.008 ± 0.0028 | 0.0035 ± 0.0064 | 0.006 ± 0.0042 | 0.002 ± 0.0014 | -0.0055 ± 0.011 | -0.005 ± 0.0014 |
| CASM3C:Serum Amyloid A | -0.0125 ± 0.0092 | 0.045 ± 0.064 | 0.028 ± 0.062 | -0.003 ± 0.0042 | -0.0065 ± 0.1 | -0.015 ± 0.017 | 0.0395 ± 0.049 | 0.027 ± 0.018 | 0.0085 ± 0.019 | -0.0055 ± 0.018 | 0.0315 ± 0.012 | -0.003 ± 0.0028 | 0.01 ± 0.047 | 0.0265 ± 0.096 | -0.066 ± 0.03 | -0.031 ± 0.04 | -0.034 ± 0.03 | -0.0005 ± 0.049 | 0.0215 ± 0.019 | -0.002 ± 0.059 | -0.049 ± 0.082 | -0.0575 ± 0.08 | -0.0795 ± 0.071 | -0.068 ± 0.055 | 0.011 ± 0.027 | -0.006 ± 0.011 | -0.035 ± 0.016 | -0.0105 ± 0.053 | -0.005 ± 0.042 |
| HDF3CGF:CCL2/MCP-1 | -0.0245 ± 0.013 | 0.0285 ± 0.016 | 0.0015 ± 0.016 | -0.044 ± 0.035 | 0.027 ± 0.067 | 0.007 ± 0.0057 | -0.01 ± 0.0028 | -0.0215 ± 0.012 | -0.005 ± 0.0042 | -0.002 ± 0.03 | -0.0145 ± 0.00071 | -0.009 ± 0.03 | -0.0205 ± 0.04 | 0.007 ± 0.023 | 0 ± 0.0085 | 0.011 ± 0.025 | 0.0285 ± 0.0021 | 0.019 ± 0.0028 | -0.023 ± 0.017 | 0.0115 ± 0.016 | -0.0285 ± 0.029 | -0.0075 ± 0.037 | 0.0005 ± 0.025 | -0.023 ± 0.03 | -0.0015 ± 0.015 | -0.022 ± 0.033 | -0.0435 ± 0.042 | 0.022 ± 0.02 | -0.0065 ± 0.0078 |
| HDF3CGF:CD54/ICAM-1 | -0.0155 ± 0.0064 | -0.018 ± 0.0057 | -0.0085 ± 0.00071 | 0.036 ± 0.033 | -0.008 ± 0.0071 | 0.009 ± 0.0057 | 0.001 ± 0.018 | 0.0035 ± 0.013 | 0.004 ± 0.016 | -0.0195 ± 0.016 | -0.009 ± 0.013 | -0.017 ± 0.013 | -0.019 ± 0.037 | -0.0125 ± 0.0092 | -0.0025 ± 0.00071 | -0.0075 ± 0.015 | -0.0245 ± 0.005 | -0.0555 ± 0.012 | -0.0045 ± 0.018 | 0.0055 ± 0.0078 | 0.0025 ± 0.018 | -0.009 ± 0.016 | -0.0145 ± 0.0021 | 0.003 ± 0.011 | -0.0045 ± 0.036 | -0.0125 ± 0.012 | 0.0085 ± 0.03 | 0.003 ± 0.0028 | 0.0015 ± 0.018 |

Record cards, as listed above. Values in the order: level (log10) [1] | level (log10) [2] | level (log10) [3] | level (log10) [4] | level (log10) [5] | level (log10) (Hexafluoroglutaric acid; 2200 nM) | level (log10) (Hexafluoroglutaric acid; 6700 nM) | level (log10) (Hexafluoroglutaric acid; 20000 nM) | level (log10) (Hexafluoroglutaric acid; 60000 nM) | level (log10) (Perfluorohexanoic acid; 2200 nM) | level (log10) (Perfluorohexanoic acid; 6700 nM) | level (log10) (Perfluorohexanoic acid; 20000 nM) | level (log10) (Perfluorohexanoic acid; 60000 nM) | level (log10) [6] | level (log10) ([7]; 2200 nM) | level (log10) ([7]; 6700 nM) | level (log10) ([7]; 20000 nM) | level (log10) ([7]; 60000 nM) | level (log10) [8] | level (log10) [9] | level (log10) ([10]; 2200 nM) | level (log10) ([10]; 6700 nM) | level (log10) ([10]; 20000 nM) | level (log10) ([10]; 60000 nM) | level (log10) [11] | level (log10) [12] | level (log10) [13] | level (log10) [14] | level (log10) [15]
CASM3C:M-CSF reads -0.0075 ± 0.044 | 0.022 ± 0.051 | 0.0325 ± 0.036 | 0.009 ± 0.023 | 0.0075 ± 0.06 | 0.01 ± 0.059 | -0.0135 ± 0.022 | -0.0185 ± 0.033 | 0.018 ± 0.018 | 0.022 ± 0.037 | -0.0185 ± 0.019 | -0.0125 ± 0.013 | 0.0105 ± 0.0092 | 0.055 ± 0.0028 | -0.0635 ± 0.076 | -0.049 ± 0.016 | -0.0405 ± 0.0092 | -0.0405 ± 0.022 | -0.0155 ± 0.013 | 0.033 ± 0.09 | -0.0065 ± 0.022 | -0.007 ± 0.031 | -0.002 | 0.0025 ± 0.011 | 0.022 ± 0.038 | 0.002 ± 0.04 | 0.031 ± 0.011 | 0.0145 ± 0.067 | 0.0115 ± 0.054
HDF3CGF:CD54/ICAM-1 reads -0.0155 ± 0.0064 | -0.018 ± 0.0057 | -0.0085 ± 0.00071 | 0.036 ± 0.033 | -0.008 ± 0.0071 | 0.009 ± 0.0057 | 0.001 ± 0.018 | 0.0035 ± 0.013 | 0.004 ± 0.016 | -0.0195 ± 0.016 | -0.009 ± 0.013 | -0.017 ± 0.013 | -0.019 ± 0.037 | -0.0125 ± 0.0092 | -0.0025 ± 0.00071 | -0.0075 ± 0.015 | -0.0245 ± 0.005 | -0.0555 ± 0.012 | -0.0045 ± 0.018 | 0.0055 ± 0.0078 | 0.0025 ± 0.018 | -0.009 ± 0.016 | -0.0145 ± 0.0021 | 0.003 ± 0.011 | -0.0045 ± 0.036 | -0.0125 ± 0.012 | 0.0085 ± 0.03 | 0.003 ± 0.0028 | 0.0015 ± 0.018
